In patent publication US20140357578:
The exact form of at least one protein or probe is not confirmed. No signal at the amounts used counts as a negative. For some of these results: Results from cells or extracts need not show a direct contact.

Sequences of proteins named here, by UniProt entry; tags and fusion partners are left off. Residues count along the entry.
UniProt P19338, 2-710: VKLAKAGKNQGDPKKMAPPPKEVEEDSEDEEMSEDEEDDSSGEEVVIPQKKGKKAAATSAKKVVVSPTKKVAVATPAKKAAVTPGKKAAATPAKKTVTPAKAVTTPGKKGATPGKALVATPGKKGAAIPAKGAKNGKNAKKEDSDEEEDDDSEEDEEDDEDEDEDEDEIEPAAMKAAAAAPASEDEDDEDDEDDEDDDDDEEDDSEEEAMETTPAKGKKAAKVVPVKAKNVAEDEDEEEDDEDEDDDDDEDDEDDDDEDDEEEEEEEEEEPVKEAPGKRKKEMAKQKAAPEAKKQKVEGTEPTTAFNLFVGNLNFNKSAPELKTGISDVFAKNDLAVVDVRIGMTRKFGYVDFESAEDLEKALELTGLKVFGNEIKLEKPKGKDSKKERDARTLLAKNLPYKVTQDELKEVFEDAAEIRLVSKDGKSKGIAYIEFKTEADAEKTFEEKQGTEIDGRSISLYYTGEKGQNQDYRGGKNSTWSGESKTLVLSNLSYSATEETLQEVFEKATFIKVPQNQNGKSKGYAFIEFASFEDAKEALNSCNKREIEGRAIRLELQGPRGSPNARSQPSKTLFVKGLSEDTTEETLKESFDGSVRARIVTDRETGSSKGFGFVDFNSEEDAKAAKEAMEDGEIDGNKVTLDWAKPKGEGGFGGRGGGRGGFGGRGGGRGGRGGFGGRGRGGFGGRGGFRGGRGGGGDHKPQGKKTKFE
UniProt P19338, whole entry: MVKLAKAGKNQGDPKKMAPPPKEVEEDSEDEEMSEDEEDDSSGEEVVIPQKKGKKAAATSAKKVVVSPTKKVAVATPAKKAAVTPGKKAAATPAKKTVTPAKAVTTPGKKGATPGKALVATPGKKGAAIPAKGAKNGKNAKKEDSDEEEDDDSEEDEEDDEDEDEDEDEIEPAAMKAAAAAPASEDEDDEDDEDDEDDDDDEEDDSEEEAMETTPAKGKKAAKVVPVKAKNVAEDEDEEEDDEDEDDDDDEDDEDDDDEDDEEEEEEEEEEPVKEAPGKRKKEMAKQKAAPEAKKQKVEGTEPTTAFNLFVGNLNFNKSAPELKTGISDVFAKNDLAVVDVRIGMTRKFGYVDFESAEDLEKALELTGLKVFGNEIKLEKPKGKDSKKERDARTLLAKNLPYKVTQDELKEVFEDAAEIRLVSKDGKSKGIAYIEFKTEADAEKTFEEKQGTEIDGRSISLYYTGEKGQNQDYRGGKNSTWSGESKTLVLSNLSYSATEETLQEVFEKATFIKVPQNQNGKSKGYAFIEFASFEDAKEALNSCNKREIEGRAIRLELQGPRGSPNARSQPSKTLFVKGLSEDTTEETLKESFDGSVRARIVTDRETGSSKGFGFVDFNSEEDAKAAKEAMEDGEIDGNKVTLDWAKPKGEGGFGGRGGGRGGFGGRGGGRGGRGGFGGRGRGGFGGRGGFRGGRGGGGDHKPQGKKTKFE

Columns and labels:
[1] = target: Nucleolin (NCL), endogenous (UniProt P19338); assay: pull-down; conditions: protein in an extract
[2] = target: Nucleolin (NCL), GST fusion (UniProt P19338); assay: pull-down; conditions: purified recombinant protein, protein details: GST fusion, Abnova H00004691-P01

“CAGCAGCAGCAGCAGCAGCAGCAGCAGCAGCAGCAGCAGCAGCAGCAGCAGCAGCAGCAGCAGCAGCAGCAGCAGCAGCAG [MJDCAG27 RNA (cellular transcript)]”: no binding ([1]; RNA immunoprecipitation, unexpanded control, variant of MJDCAG78 RNA (cellular transcript)).

“CAGCAGCAGCAGCAGCAGCAGCAGCAGCAGCAGCAGCAGCAGCAGCAGCAGCAGCAGCAGCAGCAGCAGCAGCAGCAGCAGCAGCAGCAGCAGCAGCAGCAGCAGCAGCAGCAGCAGCAGCAGCAGCAGCAGCAGCAGCAGCAGCAGCAGCAGCAGCAGCAGCAGCAGCAGCAGCAGCAGCAGCAGCAGCAGCAGCAGCAGCAGCAGCAGCAGCAGCAGCAGCAGCAGCAGCAG [CAG78 RNA (in vitro transcribed from MJDCAG78 PCR product)]”: binds ([2]; 20 mM Hepes pH 7.4, 150 mM NaCl, 5 mM MgCl2, 0.5% NP-40, yeast tRNA, 4 C, RT-PCR).

“CAGCAGCAGCAGCAGCAGCAGCAGCAGCAGCAGCAGCAGCAGCAGCAGCAGCAGCAGCAGCAGCAGCAGCAGCAGCAGCAGCAGCAGCAGCAGCAGCAGCAGCAGCAGCAGCAGCAGCAGCAGCAGCAGCAGCAGCAGCAGCAGCAGCAGCAGCAGCAGCAGCAGCAGCAGCAGCAGCAGCAGCAGCAGCAGCAGCAGCAGCAGCAGCAGCAGCAGCAGCAGCAGCAGCAGCAG [MJDCAG78 RNA (cellular transcript)]”: binds ([1]; RNA immunoprecipitation from cell lysate, 5 mM MgCl2, 4 C).

“CUGCUGCUGCUGCUGCUGCUGCUGCUGCUGCUGCUGCUGCUGCUGCUGCUGCUGCUGCUGCUGCUGCUGCUGCUGCUGCUGCUGCUGCUGCUGCUGCUGCUGCUGCUGCUGCUGCUGCUGCUGCUGCUGCUGCUGCUGCUGCUGCUGCUGCUGCUGCUGCUGCUGCUGCUGCUGCUGCUGCUGCUGCUGCUGCUGCUGCUGCUGCUGCUGCUGCUGCUGCUGCUGCUGCUGCUG [CUG78 RNA (in vitro transcribed)]”: no binding ([2]; same buffer as CAG78).
